This is one part of the list.

The chains behind the UniProt entries cited, without tags or fusion partners. Where a name states a change or a piece, a line headed by the entry shows the natural chain unless it says otherwise.
UniProt Q8N6N3: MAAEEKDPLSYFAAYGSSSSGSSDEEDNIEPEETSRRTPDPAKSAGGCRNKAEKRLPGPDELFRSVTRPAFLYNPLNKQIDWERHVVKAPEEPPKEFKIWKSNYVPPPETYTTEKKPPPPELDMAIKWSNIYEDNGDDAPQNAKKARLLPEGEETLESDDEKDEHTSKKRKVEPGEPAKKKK
UniProt P27708: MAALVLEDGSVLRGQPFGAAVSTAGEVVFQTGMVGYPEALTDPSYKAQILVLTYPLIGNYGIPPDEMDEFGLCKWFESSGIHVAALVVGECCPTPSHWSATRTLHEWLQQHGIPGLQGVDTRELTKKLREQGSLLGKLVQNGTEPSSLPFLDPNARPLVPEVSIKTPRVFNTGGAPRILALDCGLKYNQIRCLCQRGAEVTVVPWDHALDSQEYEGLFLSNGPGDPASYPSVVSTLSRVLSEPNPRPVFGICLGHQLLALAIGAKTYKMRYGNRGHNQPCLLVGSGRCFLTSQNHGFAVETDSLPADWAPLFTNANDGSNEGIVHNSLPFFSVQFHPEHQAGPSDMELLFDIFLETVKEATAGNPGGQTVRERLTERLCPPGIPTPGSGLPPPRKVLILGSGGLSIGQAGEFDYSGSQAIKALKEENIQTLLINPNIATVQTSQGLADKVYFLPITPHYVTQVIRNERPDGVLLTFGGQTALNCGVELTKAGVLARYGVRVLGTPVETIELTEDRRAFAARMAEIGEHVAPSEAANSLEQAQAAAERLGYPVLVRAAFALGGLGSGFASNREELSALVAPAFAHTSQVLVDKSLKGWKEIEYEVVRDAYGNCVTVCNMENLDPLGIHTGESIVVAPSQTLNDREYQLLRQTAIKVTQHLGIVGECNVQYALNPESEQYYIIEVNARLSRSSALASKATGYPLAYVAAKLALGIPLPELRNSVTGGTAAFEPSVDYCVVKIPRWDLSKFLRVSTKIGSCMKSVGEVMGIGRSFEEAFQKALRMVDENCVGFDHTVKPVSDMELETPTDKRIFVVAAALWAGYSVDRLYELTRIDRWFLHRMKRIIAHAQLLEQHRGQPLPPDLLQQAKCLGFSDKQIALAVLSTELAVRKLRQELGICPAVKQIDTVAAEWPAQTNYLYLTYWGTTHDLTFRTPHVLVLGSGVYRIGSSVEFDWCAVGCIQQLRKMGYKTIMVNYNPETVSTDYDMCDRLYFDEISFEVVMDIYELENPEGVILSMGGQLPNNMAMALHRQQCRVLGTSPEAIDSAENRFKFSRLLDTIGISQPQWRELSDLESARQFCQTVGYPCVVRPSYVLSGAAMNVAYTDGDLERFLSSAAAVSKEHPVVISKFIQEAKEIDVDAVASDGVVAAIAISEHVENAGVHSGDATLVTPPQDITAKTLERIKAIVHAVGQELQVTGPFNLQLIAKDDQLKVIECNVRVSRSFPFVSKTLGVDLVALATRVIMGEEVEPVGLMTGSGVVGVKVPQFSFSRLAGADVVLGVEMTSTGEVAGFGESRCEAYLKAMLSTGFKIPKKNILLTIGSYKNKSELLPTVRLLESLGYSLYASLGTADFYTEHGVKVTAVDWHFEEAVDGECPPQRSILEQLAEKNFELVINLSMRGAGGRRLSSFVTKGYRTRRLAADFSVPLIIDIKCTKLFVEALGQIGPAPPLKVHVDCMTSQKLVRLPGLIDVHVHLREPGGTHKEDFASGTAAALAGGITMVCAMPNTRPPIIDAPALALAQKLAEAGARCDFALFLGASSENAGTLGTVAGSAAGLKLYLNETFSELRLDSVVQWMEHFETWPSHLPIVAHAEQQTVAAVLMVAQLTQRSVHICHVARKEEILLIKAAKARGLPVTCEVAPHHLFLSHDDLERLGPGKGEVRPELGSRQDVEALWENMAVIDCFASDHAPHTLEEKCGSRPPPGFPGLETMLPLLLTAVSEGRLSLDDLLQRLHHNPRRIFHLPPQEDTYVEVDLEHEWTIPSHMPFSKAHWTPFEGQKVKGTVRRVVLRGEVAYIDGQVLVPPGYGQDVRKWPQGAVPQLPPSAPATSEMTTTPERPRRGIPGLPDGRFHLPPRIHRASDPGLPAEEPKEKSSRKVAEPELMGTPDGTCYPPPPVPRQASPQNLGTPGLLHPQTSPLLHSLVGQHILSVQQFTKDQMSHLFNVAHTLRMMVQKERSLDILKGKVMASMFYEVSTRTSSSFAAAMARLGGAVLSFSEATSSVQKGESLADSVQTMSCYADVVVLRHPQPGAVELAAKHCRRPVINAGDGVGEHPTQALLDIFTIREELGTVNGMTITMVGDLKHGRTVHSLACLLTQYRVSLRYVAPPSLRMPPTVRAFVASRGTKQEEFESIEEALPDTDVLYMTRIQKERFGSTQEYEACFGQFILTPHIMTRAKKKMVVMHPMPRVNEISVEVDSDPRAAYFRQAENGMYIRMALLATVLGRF
UniProt P05937: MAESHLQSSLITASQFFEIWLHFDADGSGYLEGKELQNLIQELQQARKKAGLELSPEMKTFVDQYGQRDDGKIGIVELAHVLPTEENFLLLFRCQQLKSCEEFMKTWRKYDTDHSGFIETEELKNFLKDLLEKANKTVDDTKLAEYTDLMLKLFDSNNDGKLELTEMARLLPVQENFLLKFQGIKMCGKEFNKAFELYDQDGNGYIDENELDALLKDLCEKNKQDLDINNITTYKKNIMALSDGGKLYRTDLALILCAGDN
UniProt Q13901: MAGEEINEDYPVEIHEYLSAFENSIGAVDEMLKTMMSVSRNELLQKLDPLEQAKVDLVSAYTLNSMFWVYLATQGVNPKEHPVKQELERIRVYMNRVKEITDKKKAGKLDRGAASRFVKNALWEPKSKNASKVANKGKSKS
UniProt Q96GQ5: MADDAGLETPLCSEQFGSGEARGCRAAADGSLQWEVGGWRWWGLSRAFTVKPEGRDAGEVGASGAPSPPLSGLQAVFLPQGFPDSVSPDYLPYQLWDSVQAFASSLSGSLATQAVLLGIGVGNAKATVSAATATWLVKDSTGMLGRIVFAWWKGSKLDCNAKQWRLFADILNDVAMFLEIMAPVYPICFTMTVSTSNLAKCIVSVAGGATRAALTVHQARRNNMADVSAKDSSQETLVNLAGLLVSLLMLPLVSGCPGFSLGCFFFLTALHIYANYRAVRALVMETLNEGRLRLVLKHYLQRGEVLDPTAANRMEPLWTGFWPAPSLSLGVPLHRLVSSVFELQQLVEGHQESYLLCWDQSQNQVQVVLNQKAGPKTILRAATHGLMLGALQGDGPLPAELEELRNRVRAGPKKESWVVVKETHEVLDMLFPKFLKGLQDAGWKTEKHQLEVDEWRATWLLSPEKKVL
UniProt P47756, whole entry, looked up: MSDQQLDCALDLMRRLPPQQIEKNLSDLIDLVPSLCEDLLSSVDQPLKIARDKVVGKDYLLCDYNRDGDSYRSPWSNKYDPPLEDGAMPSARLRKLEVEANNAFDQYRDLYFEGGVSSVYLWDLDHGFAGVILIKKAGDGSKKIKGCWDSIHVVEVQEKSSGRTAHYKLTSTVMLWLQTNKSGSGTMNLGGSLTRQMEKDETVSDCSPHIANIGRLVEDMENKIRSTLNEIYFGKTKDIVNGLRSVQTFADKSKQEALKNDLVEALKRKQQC
UniProt P10643, whole entry, looked up: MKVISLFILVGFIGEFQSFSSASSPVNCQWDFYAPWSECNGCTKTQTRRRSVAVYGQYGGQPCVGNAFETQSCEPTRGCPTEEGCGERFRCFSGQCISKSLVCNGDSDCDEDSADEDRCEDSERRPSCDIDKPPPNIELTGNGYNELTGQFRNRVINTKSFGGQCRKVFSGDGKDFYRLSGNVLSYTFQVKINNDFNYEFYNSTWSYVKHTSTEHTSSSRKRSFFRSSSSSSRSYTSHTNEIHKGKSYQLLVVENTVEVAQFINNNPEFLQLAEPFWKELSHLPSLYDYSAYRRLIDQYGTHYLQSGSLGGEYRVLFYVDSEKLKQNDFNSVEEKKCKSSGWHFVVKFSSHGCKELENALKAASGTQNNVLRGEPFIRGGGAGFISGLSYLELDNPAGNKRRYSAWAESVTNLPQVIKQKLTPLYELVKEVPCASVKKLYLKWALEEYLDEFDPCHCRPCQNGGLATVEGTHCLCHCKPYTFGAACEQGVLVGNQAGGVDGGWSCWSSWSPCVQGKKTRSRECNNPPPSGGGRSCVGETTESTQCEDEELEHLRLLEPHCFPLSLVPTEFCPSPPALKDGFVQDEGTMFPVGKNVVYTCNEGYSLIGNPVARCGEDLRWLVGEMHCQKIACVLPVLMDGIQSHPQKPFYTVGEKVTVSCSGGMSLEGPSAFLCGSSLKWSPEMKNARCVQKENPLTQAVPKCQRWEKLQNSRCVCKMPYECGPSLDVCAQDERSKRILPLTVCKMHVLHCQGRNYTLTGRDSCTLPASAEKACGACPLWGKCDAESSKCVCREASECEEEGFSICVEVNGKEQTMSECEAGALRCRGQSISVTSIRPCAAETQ
UniProt Q96B23: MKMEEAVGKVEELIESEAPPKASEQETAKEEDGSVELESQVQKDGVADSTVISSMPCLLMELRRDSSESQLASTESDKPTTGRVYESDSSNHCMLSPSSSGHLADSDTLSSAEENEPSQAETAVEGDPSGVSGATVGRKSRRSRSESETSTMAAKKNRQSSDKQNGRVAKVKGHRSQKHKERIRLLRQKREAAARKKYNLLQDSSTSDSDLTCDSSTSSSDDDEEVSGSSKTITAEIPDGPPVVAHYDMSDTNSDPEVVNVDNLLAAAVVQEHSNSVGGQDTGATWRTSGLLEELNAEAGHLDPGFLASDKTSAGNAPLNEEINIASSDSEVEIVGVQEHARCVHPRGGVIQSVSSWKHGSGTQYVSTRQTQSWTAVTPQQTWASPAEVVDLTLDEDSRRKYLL
UniProt Q9Y2G2: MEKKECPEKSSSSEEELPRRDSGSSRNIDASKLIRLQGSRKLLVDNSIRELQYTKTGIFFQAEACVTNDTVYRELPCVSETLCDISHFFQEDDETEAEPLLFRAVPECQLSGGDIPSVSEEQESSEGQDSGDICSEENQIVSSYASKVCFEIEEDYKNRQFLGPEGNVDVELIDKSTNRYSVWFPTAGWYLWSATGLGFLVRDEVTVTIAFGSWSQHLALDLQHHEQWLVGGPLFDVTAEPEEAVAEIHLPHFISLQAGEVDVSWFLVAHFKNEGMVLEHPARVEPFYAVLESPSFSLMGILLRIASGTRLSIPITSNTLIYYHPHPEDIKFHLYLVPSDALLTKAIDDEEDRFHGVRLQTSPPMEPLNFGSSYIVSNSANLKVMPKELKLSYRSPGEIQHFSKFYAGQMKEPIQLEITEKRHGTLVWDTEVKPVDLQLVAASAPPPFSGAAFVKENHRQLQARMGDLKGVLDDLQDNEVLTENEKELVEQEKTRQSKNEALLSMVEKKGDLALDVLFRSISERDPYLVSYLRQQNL

The results in this text go back to the supplement of paper PMC10849652.

Compound in the assay: c1cc(OCCN2CCCCC2)cc(-c2n[nH]c3ccc(-c4nnc[nH]4)cc23)c1
Briefly: log2 fold change, soluble protein after heating vs DMSO (PISA); higher = thermal stabilisation; K562 cells, 10 uM, 30 min; active = over 0.2 and 3.5 SD of the protein, either way, in both replicates (recomputed). The method in brief:
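K562 cells at 2×10^6 cells/mL were treated for 30 min with 10 μM compound, and aliquots were heated for 3 min over 48°C-58°C before pooling. Extraction used PBS with 0.5% NP-40 at 4°C, and soluble protein was the supernatant after 21,000xg for 90 min, measured by TMTpro 16plex LC-MS/MS with channel sums equalised. Thermal stability values, relative to control samples and from duplicates, are log2 fold changes.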
As for C1orf52 (UniProt Q8N6N3), the log2 fold change is inactive: 0.012.
Next, CAD (UniProt P27708): inactive: -0.141.
Next, CALB1 (UniProt P05937): inactive: -0.035; C1D (UniProt Q13901): inactive: 0.008; C16orf58 (UniProt Q96GQ5): inactive: -0.017.
To C19orf53 (UniProt Q9UNZ5) belongs inactive: -0.155; to CAPZB isoform 2 (UniProt P47756), inactive: 0.036.
On to C7 (UniProt P10643), for which the log2 fold change was inactive: 0.263.
Next, C18orf25 isoform 2 (UniProt Q96B23): inactive: -0.064; CARD8 isoform 5 (UniProt Q9Y2G2): inactive: -0.092.
